PMC5994430, “Mitochondrial Delivery of Phenol Substructure Triggers Mitochondrial Depolarization and Apoptosis of Cancer Cells” (Frontiers in Pharmacology, 2018)

Tests used:
U-2OS cells = assay: Cell viability (neutral red), IC50; assay type: cell-based, Human; details: normal osteoblasts vs osteosarcoma
A549 cells = assay: Cell viability (neutral red); assay type: cell-based, Human; details: normal lung epithelium vs lung cancer
Text: Human colon cancer HT29 cells, colon-derived normal fibroblast CCD-18Co cells, lung cancer A549 cells, normal human bronchial epithelial (immortalized with adenovirus 12-SV40 virus hybrid Ad12SV40) BEAS-2B cells, breast cancer MDA-MB-231 cells, normal breast epithelial MCF10A cells, human osteosarcoma U-2OS cells were purchased from ATCC (Manassas, VA, United States). […] All subjects gave written informed consent in accordance with the Declaration of Helsinki. Cells were maintained in medium supplemented with 10% v/v fetal bovine serum, 1% v/v penicillin-streptomycin, 1% v/v L-glutamine. Morphological analysis was performed with a bright field microscope (Leica Microsystems, Wetzlar, Germany). […]
LDH activity was measured in the extracellular medium and in the cell lysate: 50 μl of extracellular medium or 5 μl of cell lysate were incubated at 37°C with 5 mM NADH. The reaction was started by adding 20 mM pyruvic acid and was monitored for 6 min, measuring absorbance at 340 nm using a Synergy HT Multi-Detection Microplate Reader (Bio-Tek Instruments, Winoosky, MT, United States). […] Both intracellular and extracellular enzyme activities were expressed as μmol NADH oxidized/min/dish. The results were expressed as percentage of extracellular LDH versus total (intracellular plus extracellular) LDH. […] IC50 was calculated with the CompuSyn software^1.

SMILES: CC(=O)Oc1ccc(C[P+](c2ccccc2)(c2ccccc2)c2ccccc2)cc1.[Br-] [Compound 1]
- ratio between the IC50 in osteoblasts and U-2OS cells (U-2OS cells): 14.36
- ratio between the IC50 in BEAS-2B cells and A549 cells (A549 cells): 16.97

SMILES: O=C(Oc1ccc(C[P+](c2ccccc2)(c2ccccc2)c2ccccc2)cc1C(F)(F)F)c1ccccc1.[Br-] [Compound 2]
- ratio between the IC50 in osteoblasts and U-2OS cells (U-2OS cells): 5.41
- ratio between the IC50 in BEAS-2B cells and A549 cells (A549 cells): 13.38
